From patent publication US20160002325A1 (VACCINEX, published 2016)
Where a chain is given by its changes, count along the chain named. These are yes or no findings as the source states them, for the method shown. Some results given as binding are weak or reduced against the parent protein; the word gives no strength.

How the values were obtained:
[1] = molecular target: T1, cynomolgus monkey CXCL13 (cynomolgus monkey); experiment: specificity ELISA, plate-coated recombinant chemokine
T1 sequence: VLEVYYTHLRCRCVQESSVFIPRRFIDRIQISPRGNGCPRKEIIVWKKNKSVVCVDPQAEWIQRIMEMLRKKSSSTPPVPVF

[2] = molecular target: T1, cynomolgus monkey CXCL13 (cynomolgus monkey); experiment: specificity ELISA, chemokine coated at 100 nM
human CXCL13 [3] = molecular target: T2, human CXCL13 (human, UniProt O43927 23-109); experiment: specificity ELISA, chemokine coated at 100 nM
T2 construct: Recombinant protein bought from Peprotech (#300-47); In some assays native human CXCL13 from supernatant of IFN-gamma-stimulated THP-1 cells was used; this is said in the assay field; also called recombinant human CXCL13; rhuCXCL13
T2 sequence: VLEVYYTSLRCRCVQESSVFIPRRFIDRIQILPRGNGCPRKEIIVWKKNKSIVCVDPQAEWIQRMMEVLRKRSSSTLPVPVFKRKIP

mouse CXCL13 [4] = molecular target: T3, mouse CXCL13 (mouse, UniProt O55038 22-109); experiment: specificity ELISA, chemokine coated at 100 nM
T3 construct: Recombinant protein bought from Peprotech (#250-24); In some assays native mouse CXCL13 from organ extracts of TNF-alpha transgenic mice was used; this is said in the assay field; also called recombinant mouse CXCL13; rmuCXCL13
T3 sequence: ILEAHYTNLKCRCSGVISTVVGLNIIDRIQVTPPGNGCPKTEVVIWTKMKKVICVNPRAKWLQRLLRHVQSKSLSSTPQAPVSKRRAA

mouse CXCL13 [5] = molecular target: T3, mouse CXCL13; experiment: Epitope Competition ELISA; recombinant mouse CXCL13 captured with MAb 5378, detection with biotinylated MAb 5261
human CXCL13 [6] = molecular target: T2, human CXCL13; experiment: summary of epitope competition ELISAs

B1: 3D2 (antibody, mouse IgG1, V domains shown)
VH: EVQLQESGPGILQPSQTLNLTCSFSGFSLSTFGMGVGWIRQPSGKGLEWLAHIWWDDDRRYNPALKSRLTISKETSKNQVFLKIANVDTADTATYYCTRIAGYYGSRDWFAYWGQGTTVTVSS
VL: DIVLTQSPASLAVSLGQRATISCRASESVDNSGISFMHWYQQKPGQPPKLLIFRASDLESGIPARFSGSGSRTDFTLTVNPVETDDVATYFCQQSNKDPWTFGGGTKLEIK
notes: Hybridoma-produced mouse IgG1; also called mouse anti-human CXCL13 antibody 3D2; H1609/L0293
binding [1]: binds

B2: MAb 5261 (antibody, V domains shown)
VH: QVQLQESGPGLVKPSETLSLTCTVSGFSLSTFGMGVGWIRQPPGKGLEWIAHIWWDDDRRYNPALKSRVTISKDTSKNQFSLKLSSVTAADTAVYYCARIAGYYGSRDWFAYWGQGTTVTVSS
VL: DIQMTQSPSSLSASVGDRVTITCRASESVDNMGISFMHWYQQKPGKAPKLLIFRASDLESGVPSRFSGSGSGTDFTLTISSLQPEDFATYYCQQSNKDPWTFGQGTKLEIK
notes: Humanized
binding [2]: binds

B3: MAb 5080 (antibody, human IgG1, V domains shown)
VH: B2 VH
VL: B2 VL with M32S, R65G, G72R
notes: also called H2177/L5055
binding [2]: binds

B4: MAb 1476 (antibody, V domains shown)
VH: B1 VH
VL: B1 VL
notes: Chimeric IgG1: 3D2 variable domains (H1609/L0293) on human gamma 1 heavy chain constant and human kappa constant; also called chimeric 3D2
binding [2]: binds

B5: MAb 5378 (antibody, V domains shown)
VH: B2 VH
VL: B2 VL
notes: also called H5188/L5153
binding (human CXCL13 [3]): binds | binding [2]: binds | binding (mouse CXCL13 [4]): binds | binding (mouse CXCL13 [5]): binds | binding (human CXCL13 [6]): binds
